Measured values from article PMC4752240.

Target: CDC20.3, yeast two-hybrid fusion
Test: two-hybrid; bait fused with the GAL4 DNA binding domain (pDEST32), prey fused with the GAL4 activation domain (pDEST22); mating of yeast strains AH109 and Y187; growth on -His (weak interaction) or -His -Ade (strong interaction); three replicates

B1: TDM1 (THREE DIVISION MUTANT1), yeast two-hybrid fusion (protein, UniProt Q9SUC3 1-434)
chain: MCPCVERRAPPGVYYTPPPARTSDHVAAMPMTERRRPPYSCSSSSERRDPFHIVHKVPSGDSPYVRAKHAQLIDKDPNRAISLFWTAINAGDRVDSALKDMAVVMKQLGRSDEGIEAIKSFRYLCSFESQDSIDNLLLELYKKSGRIEEEAVLLEHKLQTLEQGMGFGGRVSRAKRVQGKHVIMTIEQEKARILGNLGWVHLQLHNYGIAEQHYRRALGLERDKNKLCNLAICLMRMSRIPEAKSLLDDVRDSPAESECGDEPFAKSYDRAVEMLAEIESKKPEADLSEKFYAGCSFVNRMKENIAPGTANKNYSDVSSSPASVRPNSAGLYTQPRRCRLFEEETRGAARKLLFGKPQPFGSEQMKILERGEEEPMKRKKLDQNMIQYLHEFVKDTADGPKSESKKSWADIAEEEEAEEEEEERLQGELKTAEM
Question: For B1, which binding is on record?
Answer: Its binding is “no binding”.

Results are given in words; binding and its absence hold for the method and conditions named. Where a sequence is shown, tags or fusion partners need not be part of it.
